Source: the supplement of paper PMC12889115
The other results are listed elsewhere or left out. These are raw signals, not scaled to a control.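 In the initial screen, polymyxin B was used at a concentration that permeabilizes Salmonella's outer membrane but not its inner membrane. Maximum growth was set by DMSO wells with or without polymyxin B. Since plates varied, data were ranked per plate, and compounds giving the lowest OD600 advanced as hits.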

System: Salmonella enterica serovar Typhimurium SL1344
Assay: bacterial growth OD600 after 18 h with compound and polymyxin B; higher = more bacterial growth (less inhibition)
Details: 50 µM, Mueller-Hinton broth

Compound | bacterial growth OD600 (polymyxin B 1 µg/mL) | bacterial growth OD600 (polymyxin B 0.75 µg/mL)
COC(=O)[C@@H]1CCCN1C(=O)c1cn(Cc2ccccc2C(F)(F)F)nn1 | 0.8 | 
Cc1nc[nH]c1CN1CCCC(CCc2ccc(F)c(F)c2)C1 (configuration not stated) |  | 0.742
COc1ccc(CCN(C)C(=O)C2CCN(c3nc(C)c4cc(C)ccc4n3)CC2)cc1OC |  | 0.778
Cc1nc2ccc(C(=O)N3CCC(C(Cc4ccccc4)N(C)Cc4cccnc4)CC3)cc2nc1C (configuration not stated) |  | 0.763
CN(CCC1CCCCO1)C(=O)c1cc(Cn2ccc3ccccc32)[nH]n1 (configuration not stated) |  | 0.784
CN(C)c1ncc2c(n1)CCCC2NCc1ccc(C(F)(F)F)cc1 (configuration not stated) |  | 0.769
CCCc1cc(CNC(=O)c2ccc(NC3CCC3)nc2)on1 | 0.924 | 
CN(Cc1ccccc1)C1(CNC(=O)Cc2cnc3ncnn3c2)Cc2ccccc2C1 | 1.04 | 
CC(CO)Nc1ccc(-c2nc(Cc3ccc(F)cc3)no2)cn1 (configuration not stated) |  | 0.74
CN(C(=O)c1ccc(OC2CCN(C(=O)C3CC3)CC2)cc1)C1CCCCC1 | 0.93 | 
CCC1CN(Cc2cccs2)Cc2cc(OC)ccc2O1 (configuration not stated) |  | 0.757
CN(C)c1ncc2c(n1)CCCC2NC(=O)CCN1CCCCC1=O (configuration not stated) | 0.971 | 
O=C(Nc1ccc(-c2cccc(F)c2)cc1)C1CCCN(C(=O)Cc2ccccn2)C1 (configuration not stated) |  | 0.001
CCOC(=O)C1(Cc2ccccc2C)CCCN(C(=O)CCn2nccc2C)C1 (configuration not stated) | 0.645 | 
Cc1cnc(C)c(-c2ccc3c(c2)CC(CNC(=O)C2(c4ccc(Cl)cc4)CCC2)O3)n1 (configuration not stated) |  | 0.862
COc1ccc(-c2ccccc2NC(=O)C2CCCN(CCC(C)C)C2)cc1 (configuration not stated) | 0.909 | 

In the list so far, these contain an NH in an aromatic ring:
Compound | bacterial growth OD600 (polymyxin B 1 µg/mL) | bacterial growth OD600 (polymyxin B 0.75 µg/mL)
Cc1nc[nH]c1CN1CCCC(CCc2ccc(F)c(F)c2)C1 (configuration not stated) |  | 0.742
CN(CCC1CCCCO1)C(=O)c1cc(Cn2ccc3ccccc32)[nH]n1 (configuration not stated) |  | 0.784

(continued)

Compound | bacterial growth OD600 (polymyxin B 1 µg/mL) | bacterial growth OD600 (polymyxin B 0.75 µg/mL)
CN(Cc1cnn(C)c1)C(=O)CC(c1cccc(O)c1)c1cccc(Cl)c1 (configuration not stated) |  | 0.82
COc1ccc(C2c3[nH]c4ccccc4c3CCN2Cc2cc[nH]n2)c(F)c1 (configuration not stated) | 0.814 | 
Oc1cc(-c2cccc(Cl)c2)cc2c1OCCN(Cc1ccccc1)C2 |  | 0.108
O=C(c1cscn1)N1CCC(C2CCN(c3ncccn3)CC2)C1 (configuration not stated) |  | 0.788
Fc1ccc(Cc2noc(-c3ccc(N4CCCOCC4)nc3)n2)cc1 |  | 0.187
Cc1c(CN2CCC(C3CCN(Cc4cccnc4)CC3)C2)cnn1C (configuration not stated) | 1 | 
COc1ccc(CN(C)CC(C)C)cc1OCC(O)CN1CCN(C)CC1 (configuration not stated) | 0.979 | 
CN1C(=O)CC(CC(=O)N2CCC(c3ccncc3)CC2)(c2ccc(-c3ccccc3)cc2)C1=O (configuration not stated) |  | 0.007
O=C1CC(NC2CCSCC2)CN1Cc1ccccc1C(F)(F)F (configuration not stated) | 0.96 | 
O=C(CN1CCOC1=O)N1CCCC(N2CCN(Cc3ccc4c(c3)OCO4)CC2)C1 (configuration not stated) | 0.954 | 
CSCCC(=O)N1CCc2onc(-c3ccc(Cl)cc3)c2C1 |  | 0.492
COc1ccc(CNC(=O)c2cnn(-c3nccc(-c4ccccc4OC)n3)c2C2CC2)c(OC)c1 |  | 0.69
CC(=O)N1CCC(N2CCCC(CCc3ccccc3C(F)(F)F)C2)CC1 (configuration not stated) |  | 0.722
CCOC(=O)C1(Cc2ccc(OC)cc2)CCN(C(=O)CCc2ccccc2OC)CC1 | 0.011 | 
COc1ccc(C(CC(=O)N(C)Cc2c(C)n[nH]c2C)c2ccccc2)cc1 (configuration not stated) | 0.661 | 
COc1ccccc1CN1CCC2(CC1)c1ccccc1[C@@H](NC(=O)Cc1cccs1)[C@@H]2OC |  | 0.846
